In patent US20260158140A1, “METHODS AND MATERIALS FOR IMPROVING T CELL THERAPIES” (Mayo Foundation for Medical Education and Research, priority 2021, published 2026):
Entries after “also recorded” stand apart in the source; their conditions may differ. At least one structure is not confirmed: it was looked up by name or label, or the drawing left a doubt.

Experiments:
[1] = system: CART19 cells; experiment: CART19 degranulation assay (CD107a intracellular flow cytometry); type: cell-based, human; details: JeKo-1:CART19 5:1, increasing concentrations, 4 hours, vs vehicle (FIG. 1C)
[2] = system: luciferase+JeKo-1 cells; experiment: JeKo-1 xenograft model with CART19 plus oral vecabrutinib; type: in vivo
Procedure: FIGS. 4A-4C. Reversible BTK inhibition in vivo enhances CAR T cell antitumor activity in xenograft models. […] On day-14, NSG mice were injected with 1×10^6 luciferase+JeKo-1 cells intravenously. Gavage began on day −1 with vecabrutinib 50 mg/kg BID or vehicle. Untransduced T cells (UTD) or CART19 were infused on day 0. Mice were imaged weekly to assess the tumor burden. p/s=photons/seconds. […] Mice were bled weekly to measure CART19 by flow cytometry (*p<0.05, one-way ANOVA). FIG. 4C) Vecabrutinib decreases CRS. Mouse weight and wellbeing along with elevation of human cytokines represent a surrogate for the development of CRS intensity in mice receiving CART19. Mice were weighed weekly, and measurements are plotted as change in % weight from day 0 (**p<0.01, one-way ANOVA) .
6-8 week old, non-obese diabetic/severe combined immunodeficient female mice bearing a targeted mutation in the interleukin (IL)-2 receptor gamma chain gene (NSG) were obtained from Jackson Laboratories (Jackson Laboratories, Bar Harbor, ME, USA). Mice were maintained in an animal barrier space. Mice were intravenously injected with 1.0×10^6 luciferase+JeKo-1 cells. Fourteen days after injection, mice were imaged with a bioluminescent imager using an IVIS® Lumina S5 Imaging System (PerkinElmer, Hopkinton, MA, USA) to confirm engraftment. Imaging was performed 10 minutes after the intraperitoneal injection of 10 μL/g D-luciferin (15 mg/mL, Gold Biotechnology, St. Louis, MO, USA). Mice were then randomized based on their bioluminescence imaging to receive either untransduced T cells (UTD) or CART19 cells. CART19 mice were then randomized to receive vehicle or vecabrutinib via oral gavage. […] Mice were weighed weekly, and measurements were recorded in grams. Tumor burden was measured weakly by imaging mice with a bioluminescent imager using an IVIS® Lumina S5 Imaging System (PerkinElmer, Hopkinton, MA, USA), and measurements were recorded in total flux (p/s). […] Absolute quantification was obtained using volumetric measurement or CountBright absolute counting beads (Invitrogen, Carlsbad, CA, USA). […]

[3] = system: CART19 cells; experiment: RNA-Seq of CART19 cells stimulated with irradiated JeKo-1 (differential expression, Ingenuity Pathway Analysis); type: cell-based, human
Procedure: CART19 and irradiated Jeko-1 cells were co-cultured at a 1:1 ration for 72 hours with DMSO or 10 μM Vecabrutinib. Three biological replicates of stimulated and unstimulated CART19 cells were included.
RNA was isolated using miRNeasy Micro kit (Qiagen, Gaithersburg, MD, USA) and treated with RNase-Free DNase Set (Qiagen, Gaithersburg, MD, USA). Total RNA was prepped with a SMARTer stranded total RNA-seq kit v2, Pico input mammalian (Takara, Mountain View, CA, USA). Total RNA (three samples per lane) was sequenced on an Illumina HiSeq 4000 (Illumina, San Diego, CA, USA). Library preparation and sequencing were performed by the Medical Genome Facility Genome, Analysis Core (Mayo Clinic, Rochester, MN, USA). Fastq files were viewed in FastQC v0.11.8 to check for quality. Adaptor sequences were removed using Cutadapt v1.18.46. Output files were re-checked for quality and adaptor removal using FastQC v0.11.8. The latest human (GRCh38) reference genomes were downloaded from NCBI. Genome index files were generated using STAR, and the paired end reads were mapped to the genome for each condition. HTSeq was used to generate expression counts for each gene, and DeSeq2 was used to calculate differential expression using adjusted p values <0.05. Heatmap was created using pheatmap (cran.r-project.org/web/packages/pheatmap/index.html). Networks were generated using Ingenuity Pathway Analysis v49932394 (QIAGEN, qiagenbioinformatics.com/products/ingenuity-pathway-analysis). Gene set enrichment analyses were performed using Enrichr (maayanlab.cloud/Enrichr/).
• Biological Replicates: C267, C278, C296 where CART19 cells were generated • Conditions: • Vehicle • 1 μM vecabrutinib • 10 μM vecabrutinib • Activated for 72 hours with Irradiated JeKo-1 (1:1 E:T Ratio) • mRNA was extracted from CART19 cells • RNA sequencing was performed
• FastQC (initial quality check) • Trimmomatic (trim adapters and overrepresented sequences) • FastQC (to confirm removal of the above) • STAR (align to the latest human genome annotation, GRCh38.p13) • HTSeq (obtain counts for each gene) • DESeq2 • Normalized counts across samples • Calculated differential expression between groups • Multiple hypothesis correction (Benjamini-Hochberg procedure)

[4] = 10 μM vs vehicle, 72 hours (FIG. 9)

NC(=O)[C@H]1CCN(c2ncnc(N)c2F)C[C@@H]1N1CCC[C@@H](Nc2cc(Cl)cc(C(F)(F)F)c2)C1=O [vecabrutinib]
CART19 degranulation (CD107a) [1]: does not impair CART cell degranulation; also recorded: no difference in degranulation | tumor burden by bioluminescence imaging ([2]; 1 week after CART19 cell injection, CART19 + vecabrutinib 50 mg/kg BID oral gavage (FIG. 4A)): effectively controlled the lymphoma | levels of CART19 (CD3+ cells) in blood by flow cytometry ([2]; CART19 + vecabrutinib 50 mg/kg BID vs CART19 + vehicle, weekly bleeds (FIG. 4B)): increases CART19 proliferation in vivo; also recorded: significantly higher levels of CART19 | tumor control over weekly bioluminescence imaging ([2]; later follow-up, CART19 + vecabrutinib 50 mg/kg BID oral gavage vs CART19 + vehicle (FIG. 4A)): synergistic anti-tumor effects; also recorded: Tumor control was maintained | DOK-5 normalized gene counts ([3]; 1 μM or 10 μM vs vehicle (DMSO), 72 hours (FIG. 6A)): Downregulated | TRANK1 normalized gene counts ([3]; 1 μM or 10 μM vs vehicle (DMSO), 72 hours (FIG. 6B)): Upregulated | ADA2 normalized gene counts ([3]; 1 μM or 10 μM vs vehicle (DMSO), 72 hours (FIG. 6C)): Upregulated | CYSLTR1 normalized gene counts ([3]; 1 μM or 10 μM vs vehicle (DMSO), 72 hours (FIG. 6D)): Upregulated | LOC105373239 normalized gene counts ([3]; 1 μM or 10 μM vs vehicle (DMSO), 72 hours (FIG. 6E)): Upregulated | FHIT normalized gene counts ([3]; 1 μM or 10 μM vs vehicle (DMSO), 72 hours (FIG. 6F)): Upregulated | KCNA6 normalized gene counts ([3]; 1 μM or 10 μM vs vehicle (DMSO), 72 hours (FIG. 6G)): Upregulated | P2RY10 normalized gene counts ([3]; 1 μM or 10 μM vs vehicle (DMSO), 72 hours (FIG. 6H)): Upregulated | PDE3B normalized gene counts ([3]; 1 μM or 10 μM vs vehicle (DMSO), 72 hours (FIG. 6I)): Upregulated | RESF1 normalized gene counts ([3]; 1 μM or 10 μM vs vehicle (DMSO), 72 hours (FIG. 6J)): Upregulated | IL-10 signaling pathway (Ingenuity Pathway Analysis) [3, 4]: enriched | TH 1/TH2 activation pathway (Ingenuity Pathway Analysis) [3, 4]: enriched | TH2 pathway (Ingenuity Pathway Analysis) [3, 4]: enriched
